# Some of the results follow.
# Chains of the proteins cited; added tags and fusions are not shown. Lines headed by an entry give the natural chain unless they say otherwise; changes in a name come on top.
# UniProt Q7Z7A4: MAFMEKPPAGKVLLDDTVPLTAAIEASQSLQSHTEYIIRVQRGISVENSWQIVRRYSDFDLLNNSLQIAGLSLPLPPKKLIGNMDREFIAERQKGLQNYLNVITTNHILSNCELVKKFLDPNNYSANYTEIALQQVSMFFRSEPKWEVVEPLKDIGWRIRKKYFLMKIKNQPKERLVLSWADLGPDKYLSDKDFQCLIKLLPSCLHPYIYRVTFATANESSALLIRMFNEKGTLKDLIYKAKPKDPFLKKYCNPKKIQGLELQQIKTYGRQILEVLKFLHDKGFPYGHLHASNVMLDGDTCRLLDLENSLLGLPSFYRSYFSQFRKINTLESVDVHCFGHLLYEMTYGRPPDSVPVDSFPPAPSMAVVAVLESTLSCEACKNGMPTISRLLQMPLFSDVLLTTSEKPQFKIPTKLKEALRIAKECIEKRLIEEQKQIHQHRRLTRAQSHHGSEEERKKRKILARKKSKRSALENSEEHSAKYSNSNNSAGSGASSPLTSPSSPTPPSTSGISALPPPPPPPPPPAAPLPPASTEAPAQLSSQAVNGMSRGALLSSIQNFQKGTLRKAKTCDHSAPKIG
# UniProt Q9H7Z7: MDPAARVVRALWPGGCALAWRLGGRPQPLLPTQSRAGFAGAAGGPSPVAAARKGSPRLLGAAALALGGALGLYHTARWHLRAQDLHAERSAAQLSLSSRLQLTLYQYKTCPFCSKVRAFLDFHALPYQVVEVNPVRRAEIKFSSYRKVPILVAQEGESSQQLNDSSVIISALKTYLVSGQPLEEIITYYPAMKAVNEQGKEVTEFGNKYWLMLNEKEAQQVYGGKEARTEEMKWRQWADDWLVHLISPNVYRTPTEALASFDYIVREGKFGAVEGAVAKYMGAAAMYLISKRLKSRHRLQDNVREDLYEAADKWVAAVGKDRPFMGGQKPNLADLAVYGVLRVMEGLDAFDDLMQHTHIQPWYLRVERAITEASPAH
# UniProt Q9UBK7: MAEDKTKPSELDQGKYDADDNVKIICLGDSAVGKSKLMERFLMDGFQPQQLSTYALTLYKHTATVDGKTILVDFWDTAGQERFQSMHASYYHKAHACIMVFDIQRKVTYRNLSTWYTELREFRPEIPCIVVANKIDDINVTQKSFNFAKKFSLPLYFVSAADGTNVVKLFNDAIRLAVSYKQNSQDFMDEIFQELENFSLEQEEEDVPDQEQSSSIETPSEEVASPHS
# UniProt Q96AX2: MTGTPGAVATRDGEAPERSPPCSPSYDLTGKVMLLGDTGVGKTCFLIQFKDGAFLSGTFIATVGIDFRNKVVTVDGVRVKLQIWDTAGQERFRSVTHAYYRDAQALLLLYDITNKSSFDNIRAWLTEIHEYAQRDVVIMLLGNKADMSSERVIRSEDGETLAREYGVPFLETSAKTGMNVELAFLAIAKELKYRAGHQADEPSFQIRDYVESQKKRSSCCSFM
# UniProt Q9Y606: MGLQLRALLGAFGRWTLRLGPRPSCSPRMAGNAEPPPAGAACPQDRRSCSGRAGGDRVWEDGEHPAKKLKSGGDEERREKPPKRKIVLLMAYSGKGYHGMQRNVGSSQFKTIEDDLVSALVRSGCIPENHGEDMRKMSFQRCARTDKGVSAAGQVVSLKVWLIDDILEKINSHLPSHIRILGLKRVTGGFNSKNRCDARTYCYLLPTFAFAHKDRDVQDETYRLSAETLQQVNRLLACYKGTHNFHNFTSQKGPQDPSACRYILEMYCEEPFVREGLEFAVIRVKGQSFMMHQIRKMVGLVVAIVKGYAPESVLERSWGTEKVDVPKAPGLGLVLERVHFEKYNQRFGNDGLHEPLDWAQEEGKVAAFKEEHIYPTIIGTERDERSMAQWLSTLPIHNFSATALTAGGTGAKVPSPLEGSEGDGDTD
# UniProt O00231, whole entry: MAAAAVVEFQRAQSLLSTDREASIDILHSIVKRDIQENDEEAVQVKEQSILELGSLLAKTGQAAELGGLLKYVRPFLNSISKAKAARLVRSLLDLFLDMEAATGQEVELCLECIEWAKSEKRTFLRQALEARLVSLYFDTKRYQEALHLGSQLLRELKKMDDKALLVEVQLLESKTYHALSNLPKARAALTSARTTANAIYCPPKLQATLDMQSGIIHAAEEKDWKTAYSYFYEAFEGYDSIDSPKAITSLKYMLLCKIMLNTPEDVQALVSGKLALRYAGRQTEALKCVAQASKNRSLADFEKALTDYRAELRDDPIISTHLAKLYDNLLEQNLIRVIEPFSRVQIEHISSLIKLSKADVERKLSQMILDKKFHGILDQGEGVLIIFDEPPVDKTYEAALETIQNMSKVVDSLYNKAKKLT
# UniProt Q09028, whole entry: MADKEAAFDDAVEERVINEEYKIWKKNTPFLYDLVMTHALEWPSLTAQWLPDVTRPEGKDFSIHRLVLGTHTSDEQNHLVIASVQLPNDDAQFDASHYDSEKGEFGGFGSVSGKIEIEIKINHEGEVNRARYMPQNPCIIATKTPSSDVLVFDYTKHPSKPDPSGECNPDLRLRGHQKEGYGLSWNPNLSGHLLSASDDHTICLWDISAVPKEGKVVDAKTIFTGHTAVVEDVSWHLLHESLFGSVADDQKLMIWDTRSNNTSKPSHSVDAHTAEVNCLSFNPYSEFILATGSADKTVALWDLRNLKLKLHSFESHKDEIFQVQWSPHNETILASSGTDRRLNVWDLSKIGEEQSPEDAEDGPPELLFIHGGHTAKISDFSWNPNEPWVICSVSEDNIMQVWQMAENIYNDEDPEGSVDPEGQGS
# UniProt P61289: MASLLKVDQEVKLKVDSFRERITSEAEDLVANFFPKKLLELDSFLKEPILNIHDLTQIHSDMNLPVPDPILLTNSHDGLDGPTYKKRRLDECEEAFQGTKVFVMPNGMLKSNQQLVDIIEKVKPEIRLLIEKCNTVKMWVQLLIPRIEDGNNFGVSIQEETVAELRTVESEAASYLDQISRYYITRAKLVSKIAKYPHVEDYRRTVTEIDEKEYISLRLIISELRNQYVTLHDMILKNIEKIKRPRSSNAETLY
# UniProt P51159: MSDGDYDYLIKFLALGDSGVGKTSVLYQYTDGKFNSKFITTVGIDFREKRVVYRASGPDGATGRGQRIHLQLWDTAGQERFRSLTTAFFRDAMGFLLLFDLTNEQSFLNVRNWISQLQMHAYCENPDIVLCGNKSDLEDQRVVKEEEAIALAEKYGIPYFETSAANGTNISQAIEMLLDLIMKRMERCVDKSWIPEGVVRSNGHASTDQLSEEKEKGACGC
# UniProt Q05209: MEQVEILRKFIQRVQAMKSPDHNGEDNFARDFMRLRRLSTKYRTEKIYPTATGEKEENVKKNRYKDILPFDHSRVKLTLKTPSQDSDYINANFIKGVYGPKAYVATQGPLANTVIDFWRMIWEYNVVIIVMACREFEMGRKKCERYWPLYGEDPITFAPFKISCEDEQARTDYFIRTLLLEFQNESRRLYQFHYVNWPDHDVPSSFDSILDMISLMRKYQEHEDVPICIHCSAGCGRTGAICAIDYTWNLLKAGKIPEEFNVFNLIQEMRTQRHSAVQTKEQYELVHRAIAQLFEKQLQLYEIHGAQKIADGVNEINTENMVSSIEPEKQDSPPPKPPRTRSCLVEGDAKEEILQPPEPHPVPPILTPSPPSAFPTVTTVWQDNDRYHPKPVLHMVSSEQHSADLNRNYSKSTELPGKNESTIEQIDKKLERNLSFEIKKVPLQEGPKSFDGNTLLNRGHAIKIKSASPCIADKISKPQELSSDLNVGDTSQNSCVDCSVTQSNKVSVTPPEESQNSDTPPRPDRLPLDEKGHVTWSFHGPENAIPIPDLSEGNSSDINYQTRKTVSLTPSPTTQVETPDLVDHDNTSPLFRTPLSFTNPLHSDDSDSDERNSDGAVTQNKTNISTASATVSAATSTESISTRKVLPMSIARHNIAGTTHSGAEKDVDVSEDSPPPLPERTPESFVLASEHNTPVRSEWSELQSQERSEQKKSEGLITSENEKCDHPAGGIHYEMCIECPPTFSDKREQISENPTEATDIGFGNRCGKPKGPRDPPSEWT
# Compound: COc1ccc(Cn2ccc3ccc(C(=O)NO)cc32)cc1
# Experiment: dose-dependent thermal stabilisation call (2D-TPP, DLPTP, 10% FDR) (binary (1 = stabilised)); higher = stabilised by the compound
# Conditions: system: HL-60 intact cells; concentration range 0.04-10 µM
row,Target,dose-dependent thermal stabilisation call
1,PXK (UniProt Q7Z7A4),inactive: 0
2,PTGES2 (UniProt Q9H7Z7),inactive: 0
3,RABL2A (UniProt Q9UBK7),inactive: 0
4,RAB37 (UniProt Q96AX2),inactive: 0
5,UniProt Q6UWH2_HUMAN,inactive: 0
6,PUS1 (UniProt Q9Y606),inactive: 0
7,PSMD11 (UniProt O00231),inactive: 0
8,RBBP4 (UniProt Q09028),inactive: 0
9,PSME3 (UniProt P61289),inactive: 0
10,RAB27A (UniProt P51159),inactive: 0
11,PTPN12 (UniProt Q05209),inactive: 0

# — the supplement of paper PMC7666118
